Source: US20260103526A1
These are yes or no findings as the source states them, for the method shown. Some entries that bind do so weakly or less than the wild type.

Legend:
[1] = target: Fc-CLEC-1A (recombinant human Fc-CLEC-1 protein, OSE IMMUNOTHERAPEUTICS) (human); assay: ELISA on immobilized Fc-CLEC1 (2 ug/ml)
[2] = target: Fc-CLEC-1A (recombinant human Fc-CLEC-1 protein, OSE IMMUNOTHERAPEUTICS) (human); assay: flow cytometry competition: antibody pre-incubated with A488-labelled Fc-CLEC1 (10 nM), then binding to permeabilised Raji cells (CLEC-1 ligand m15); % stained cells
[3] = target: Fc-CLEC-1A (recombinant human Fc-CLEC-1 protein, OSE IMMUNOTHERAPEUTICS) (human); assay: flow cytometry competition: antibody pre-incubated with A488-labelled Fc-CLEC1 (100 nM), then binding to permeabilised NALM6 cells (CLEC-1 ligand m15); % stained cells
[4] = target: Fc-CLEC-1A (recombinant human Fc-CLEC-1 protein, OSE IMMUNOTHERAPEUTICS) (human); assay: flow cytometry competition: antibody pre-incubated with A488-labelled Fc-CLEC1 (100 nM), then binding to non-permeabilised NALM6 cells (CLEC-1 ligand m15); % stained cells
[5] = target: Fc-CLEC-1A (recombinant human Fc-CLEC-1 protein, OSE IMMUNOTHERAPEUTICS) (human); assay: flow cytometry competition: antibody pre-incubated with A488-labelled human Fc-CLEC-1 (10 µg/mL), then binding to live Hepa1.6 cells (ligand m16); % hFc-CLEC-1+ cells normalised on hIgG4
[6] = target: Fc-CLEC-1A (recombinant human Fc-CLEC-1 protein, OSE IMMUNOTHERAPEUTICS) (human); assay: CLEC1 binding assay (ELISA) on Fc-CLEC1; compared with parent 14H9
[7] = target: Fc-CLEC-1A (recombinant human Fc-CLEC-1 protein, OSE IMMUNOTHERAPEUTICS) (human); assay: flow cytometry competition: antibody pre-incubated with A488-labelled human Fc-CLEC-1 (10 µg/mL), then binding to live MC38 cells (ligand m16); % hFc-CLEC-1+ cells normalised on hIgG4
[8] = target: Fc-CLEC-1A (recombinant human Fc-CLEC-1 protein, OSE IMMUNOTHERAPEUTICS) (human); assay: CLEC1 binding assay (ELISA) on Fc-CLEC1; compared with parent 11H11
[9] = target: Fc-CLEC-1A (recombinant human Fc-CLEC-1 protein, OSE IMMUNOTHERAPEUTICS) (human); assay: CLEC1 binding assay (ELISA) on Fc-CLEC1; compared with parent 6C5

Row | binding [1] | binding [2] | binding [3] | binding [4] | binding [5] | Binder | other results
1 | binds | binds | binds | binds | binds | humanized 14H9 (antibody, V domains shown) VH: QVQLVESGGGVVQPGRSLRLSCAISGFTLTTYGIHWVRQAPGKGLEWVAVIWSDASTIYASSLKSRFTISKDNTKNTVYLQMTSLRAEDTAVYYCARHGGYYNYFDYWGQGTLVTVSS VL: DIQMTQSPSSLSASVGDRVTITCHASQNINVWLSWYQQKPGKAPKLLLYKASNLHTGVPSRFSGSGSGTDFTLTISSLQPEDIATYYCQQGQSYWTFGGGTKVEIK | 
2 |  |  |  |  |  | 14H9m (antibody, V domains shown) VH: QVQLVESGGGVVQPGRSLRLSCAISGFTLTTYGIHWVRQAPGKGLEWVAVIWSDASTIYASSLKSRFTISKDNSKNTVYLQMTSLRAEDTAIYYCARHGGYYNYFDYWGQGTLVTVSS VL: DIQMTQSPSSLSASVGDRVTITCHASQNINVWLSWYQQKPGKAPKLLLYKASNLHTGVPSRFSGSGSGTDFTLTISSLQPEDIATYYCQQGQSYWTFGGGTKVEIK | binding [6]: binds
3 | binds | binds | binds | binds | binds | humanized 11H11 (antibody, human IgG4, V domains shown) VH: QIQLVQSGSELKKPGASVKVSCKASGYTFTNFGMNWVRQAPGQGLEWMGWINTNTGEPTYADDFKGRFVFSLDTSVSTAYLQISSLKAEDTATYFCARGAPAWFTYWGQGTTVTVSS VL: DIQMTQSPSSLSASVGDRVTITCRASESIYSYLAWYQQKPGKAPKFLIYNAKTLASGVPSRFSGSGSGTDFTLTISSLQPEDFATYYCQHHFGTPLTFGQGTKLEIK | binding [7]: binds
4 |  |  |  |  |  | 11H11m (antibody, V domains shown) VH: QIQLVQSGSELKKPGASVKVSCKASGYTFTNFGMNWVRQAPGQGLEWMGWINTNTGEPTYADDFKGRFVFSLDTSVSTAYLQISSLKAEDTATYFCARGAPAWFTYWGQGTTVTVSS VL: DIQMTQSPSSLSASVGDRVTITCRASESIYSYLAWYQQKPGKSPKFLIYNAKTLASGVPSRFSGSGSGTDFTLTISSLQPEDFATYYCQHHFGTPLTFGQGTKLEIK | binding [8]: binds
5 | binds | binds | binds | binds | binds | humanized 6C5 (antibody, V domains shown) VH: QVQLVQSGAEVKKPGSSVKMSCKASGYTFTDYVISWVRQAPGQGLEWMGEIYPGSGNTYYNQKFQGRVTLTADKSTSTAYMELSSLRSEDTAVYYCAGGGSSHFDYWGQGTTVTVSS VL: EIVLTQSPATLSLSPGERATLSCRASQSVDNHGFSFMNWFQQKPGQAPRLLIYAASNRGTGIPARFSGSGSGTDFTLTISSMEPEDFAVYYCQQSKEVPWTFGGGTKVEIK | binding [7]: binds
6 |  |  |  |  |  | 6C5m2 (antibody, V domains shown) VH: QVQLVQSGAEVKKPGSSVKMSCKASGYTFTDYVISWVRQAPGQGLEWMGEIYPGSGNTYYNQKFQGRVTLTADKSTSTAYMELSSLRSEDTAVYYCAGGGSSHFDYWGQGTTVTVSS VL: EIVLTQSPATLSLSPGERATLSCRASQSVDNHGFSFMNWFQQKPGQPPKLLIYAASNRGTGIPARFSGSGSGTDFTLTISSMEPEDFAVYYCQQSKEVPWTFGGGTKVEIK | binding [9]: binds
7 |  |  |  |  |  | 6C5m1 (antibody, V domains shown) VH: QVQLVQSGAEVKKPGSSVKMSCKASGYTFTDYVISWVRQAPGQGLEWMGEIYPGSGNTYYNQKFQGRVTLTADKSTSTAYIELSSLRSEDTAVYYCAGGGSSHFDYWGQGTTVTVSS VL: EIVLTQSPATLSLSPGERATLSCRASQSVDNHGFSFMNWFQQKPGQAPRLLIYAASNRGTGIPARFSGSGSGTDFTLTISSMEPEDFAVYYCQQSKEVPWTFGGGTKVEIK | binding [9]: binds
